From PMC9355967
Results are given in words; binding and its absence hold for the method and conditions named. For some assays here: In cells and extracts the contact can be indirect. Some binding calls cover weakened binding; strength is not graded here.

The chains behind the UniProt entries cited, without tags or fusion partners. Where a name states a change or a piece, a line headed by the entry shows the natural chain unless it says otherwise. Residues count along the entry.
UniProt Q14160, residues 718-820: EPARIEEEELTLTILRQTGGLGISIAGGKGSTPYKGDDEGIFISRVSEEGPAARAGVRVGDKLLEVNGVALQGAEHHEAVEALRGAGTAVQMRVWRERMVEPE
UniProt Q9QZQ1: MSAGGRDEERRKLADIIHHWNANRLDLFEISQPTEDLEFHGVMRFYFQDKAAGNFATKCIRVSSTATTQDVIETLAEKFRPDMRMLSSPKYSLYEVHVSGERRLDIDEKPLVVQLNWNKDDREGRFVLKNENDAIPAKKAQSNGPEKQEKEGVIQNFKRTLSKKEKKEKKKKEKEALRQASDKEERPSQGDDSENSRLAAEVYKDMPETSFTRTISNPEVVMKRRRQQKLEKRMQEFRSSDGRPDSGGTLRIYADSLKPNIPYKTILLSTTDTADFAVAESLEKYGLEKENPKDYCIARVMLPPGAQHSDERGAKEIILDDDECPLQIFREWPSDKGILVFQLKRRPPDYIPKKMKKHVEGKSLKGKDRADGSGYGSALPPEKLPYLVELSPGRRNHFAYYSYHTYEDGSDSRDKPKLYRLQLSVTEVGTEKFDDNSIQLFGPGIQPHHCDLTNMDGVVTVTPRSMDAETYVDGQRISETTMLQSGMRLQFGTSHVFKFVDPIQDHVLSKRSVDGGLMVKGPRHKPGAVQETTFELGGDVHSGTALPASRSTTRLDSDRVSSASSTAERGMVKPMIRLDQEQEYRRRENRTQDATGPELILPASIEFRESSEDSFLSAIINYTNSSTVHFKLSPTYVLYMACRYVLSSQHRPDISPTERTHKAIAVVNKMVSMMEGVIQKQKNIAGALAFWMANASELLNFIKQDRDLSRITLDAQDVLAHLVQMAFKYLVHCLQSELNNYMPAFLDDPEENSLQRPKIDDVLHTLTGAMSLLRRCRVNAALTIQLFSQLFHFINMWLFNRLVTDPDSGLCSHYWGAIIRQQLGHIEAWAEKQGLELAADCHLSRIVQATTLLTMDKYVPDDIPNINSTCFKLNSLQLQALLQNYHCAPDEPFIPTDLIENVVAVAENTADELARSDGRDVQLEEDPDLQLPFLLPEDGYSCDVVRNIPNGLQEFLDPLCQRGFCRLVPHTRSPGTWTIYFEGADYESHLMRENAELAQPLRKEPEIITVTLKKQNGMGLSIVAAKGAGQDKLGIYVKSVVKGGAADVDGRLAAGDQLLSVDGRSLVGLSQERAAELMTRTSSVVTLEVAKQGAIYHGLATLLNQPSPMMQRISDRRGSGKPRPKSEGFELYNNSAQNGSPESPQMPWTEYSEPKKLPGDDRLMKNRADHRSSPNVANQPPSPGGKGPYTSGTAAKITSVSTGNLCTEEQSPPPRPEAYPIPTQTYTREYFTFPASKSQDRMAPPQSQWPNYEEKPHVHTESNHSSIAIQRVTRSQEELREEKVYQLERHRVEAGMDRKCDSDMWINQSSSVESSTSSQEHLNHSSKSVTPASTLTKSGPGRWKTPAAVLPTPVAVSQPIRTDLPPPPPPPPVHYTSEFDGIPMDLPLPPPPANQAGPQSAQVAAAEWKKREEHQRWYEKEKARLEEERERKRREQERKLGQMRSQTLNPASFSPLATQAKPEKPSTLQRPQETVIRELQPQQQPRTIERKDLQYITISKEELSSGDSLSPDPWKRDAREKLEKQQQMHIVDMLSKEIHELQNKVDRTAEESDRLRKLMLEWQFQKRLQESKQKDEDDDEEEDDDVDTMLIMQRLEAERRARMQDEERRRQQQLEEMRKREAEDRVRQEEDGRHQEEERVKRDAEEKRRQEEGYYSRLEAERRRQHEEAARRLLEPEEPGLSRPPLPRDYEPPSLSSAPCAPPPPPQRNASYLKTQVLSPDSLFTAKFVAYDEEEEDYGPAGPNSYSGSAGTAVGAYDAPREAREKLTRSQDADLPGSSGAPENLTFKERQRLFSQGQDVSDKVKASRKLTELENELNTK
GST-AFDN RA1/2 (dual RA domains, residues 6-370): residues 6-370 of Q9QZQ1
GST-AFDN core FHA domain (371-531): residues 371-531 of Q9QZQ1
GST-AFDN core FHA domain as solved in the NMR structure (381-501): residues 381-501 of Q9QZQ1
GST-AFDN C-terminal extension of the FHA domain (531-580): residues 531-580 of Q9QZQ1
UniProt P61224: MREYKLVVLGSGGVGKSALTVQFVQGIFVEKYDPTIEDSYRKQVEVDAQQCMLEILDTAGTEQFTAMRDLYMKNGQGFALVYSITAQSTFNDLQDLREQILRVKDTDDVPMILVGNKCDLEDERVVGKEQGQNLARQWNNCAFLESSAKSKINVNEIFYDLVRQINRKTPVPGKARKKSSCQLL

How the values were obtained:
GST-SCRIB PDZ1 (human) = GST-SCRIB PDZ1 (human) (UniProt Q14160); test: pull-down; GST fusions purified from E. coli on glutathione beads mixed with lysates of mammalian cells expressing (or holding endogenous) SCRIB or AFDN; TX100 buffer with 10% glycerol and 1% NP-40; only the target purified
[1] = target: GST-AFDN RA1/2 (dual RA domains, residues 6-370) (mouse) (UniProt Q9QZQ1); test: pull-down; GST-tagged RA/RBD domains purified from bacteria on glutathione beads mixed with lysates of cells expressing GTPases; beads washed 5X; anti-GFP blot; only the target purified
[2] = target: GST-AFDN C-terminal extension of the FHA domain (531-580) (mouse) (UniProt Q9QZQ1); test: pull-down; in vitro mixing: purified SCRIB PDZ1 added at 50 μM to glutathione beads bound to GST-fused AFDN FHA fragments; both purified
[3] = target: GST-AFDN core FHA domain (371-531) (mouse) (UniProt Q9QZQ1); test: as above
[4] = target: GST-AFDN core FHA domain as solved in the NMR structure (381-501) (mouse) (UniProt Q9QZQ1); test: as above

AFDN iso1, expressed in cells for GST mixing (tag not told) (from UniProt Q9QZQ1 1-1820)
binding (GST-SCRIB PDZ1 (human)): binds

EGFP-RAP1B-G12V (from UniProt P61224 1-184)
binding [1]: binds

purified SCRIB PDZ1 domain (718-820) (from UniProt Q14160 718-820) (domain or fragment)
binding [2]: no binding (tested: 50 μM) | binding [3]: no binding (tested: 50 μM) | binding [4]: no binding (tested: 50 μM)
